The record followed here is PMC3828182.

Chains of the proteins cited; added tags and fusions are not shown.
UniProt Q9Y2L5: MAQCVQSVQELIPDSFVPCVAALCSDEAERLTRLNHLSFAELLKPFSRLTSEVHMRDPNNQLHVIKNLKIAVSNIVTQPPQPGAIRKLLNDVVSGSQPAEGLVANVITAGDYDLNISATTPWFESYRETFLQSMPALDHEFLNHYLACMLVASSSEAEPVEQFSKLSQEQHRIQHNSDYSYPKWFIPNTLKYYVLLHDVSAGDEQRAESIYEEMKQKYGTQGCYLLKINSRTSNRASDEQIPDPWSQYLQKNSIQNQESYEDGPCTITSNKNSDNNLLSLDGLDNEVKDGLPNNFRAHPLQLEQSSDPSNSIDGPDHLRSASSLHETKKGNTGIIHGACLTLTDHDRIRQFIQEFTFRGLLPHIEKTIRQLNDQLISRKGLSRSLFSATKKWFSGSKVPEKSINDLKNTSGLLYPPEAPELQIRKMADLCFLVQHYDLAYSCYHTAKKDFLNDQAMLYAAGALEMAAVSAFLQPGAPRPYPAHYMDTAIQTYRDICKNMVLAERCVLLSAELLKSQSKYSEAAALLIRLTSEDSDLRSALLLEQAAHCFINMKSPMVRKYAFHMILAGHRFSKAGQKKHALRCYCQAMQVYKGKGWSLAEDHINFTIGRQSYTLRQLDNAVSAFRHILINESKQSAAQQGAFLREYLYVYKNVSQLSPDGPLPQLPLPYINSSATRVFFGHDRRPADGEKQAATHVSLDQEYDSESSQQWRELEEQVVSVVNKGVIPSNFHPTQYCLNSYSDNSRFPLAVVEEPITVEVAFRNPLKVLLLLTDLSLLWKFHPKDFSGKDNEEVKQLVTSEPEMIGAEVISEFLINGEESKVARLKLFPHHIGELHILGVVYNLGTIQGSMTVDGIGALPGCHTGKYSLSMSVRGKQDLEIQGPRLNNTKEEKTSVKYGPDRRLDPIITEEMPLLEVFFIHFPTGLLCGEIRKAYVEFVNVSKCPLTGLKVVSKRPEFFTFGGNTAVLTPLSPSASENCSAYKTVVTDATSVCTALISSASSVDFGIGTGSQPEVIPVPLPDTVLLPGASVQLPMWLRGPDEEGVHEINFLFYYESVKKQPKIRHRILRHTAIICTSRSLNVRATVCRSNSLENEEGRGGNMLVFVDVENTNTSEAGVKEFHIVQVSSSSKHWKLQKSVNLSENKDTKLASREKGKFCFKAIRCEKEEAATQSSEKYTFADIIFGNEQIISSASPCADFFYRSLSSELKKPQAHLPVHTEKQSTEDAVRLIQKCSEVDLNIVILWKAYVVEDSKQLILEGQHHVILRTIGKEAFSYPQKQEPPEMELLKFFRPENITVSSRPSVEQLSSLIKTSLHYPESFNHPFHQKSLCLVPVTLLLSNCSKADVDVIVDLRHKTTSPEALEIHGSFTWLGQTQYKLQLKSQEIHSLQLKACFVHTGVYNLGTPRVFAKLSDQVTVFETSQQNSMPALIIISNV

These are yes or no findings as the source states them, for the method shown. Binding seen in cells or lysates may run through a third protein. Tags and fused reporters may be left off the sequences shown.

For this assay, the target named is T1, FLAG-tagged HPV51 Nu strain L2 (51NuL2-FLAG) (human papillomavirus type 51, Nu strain) (UniProt P26539).
T1 sequence: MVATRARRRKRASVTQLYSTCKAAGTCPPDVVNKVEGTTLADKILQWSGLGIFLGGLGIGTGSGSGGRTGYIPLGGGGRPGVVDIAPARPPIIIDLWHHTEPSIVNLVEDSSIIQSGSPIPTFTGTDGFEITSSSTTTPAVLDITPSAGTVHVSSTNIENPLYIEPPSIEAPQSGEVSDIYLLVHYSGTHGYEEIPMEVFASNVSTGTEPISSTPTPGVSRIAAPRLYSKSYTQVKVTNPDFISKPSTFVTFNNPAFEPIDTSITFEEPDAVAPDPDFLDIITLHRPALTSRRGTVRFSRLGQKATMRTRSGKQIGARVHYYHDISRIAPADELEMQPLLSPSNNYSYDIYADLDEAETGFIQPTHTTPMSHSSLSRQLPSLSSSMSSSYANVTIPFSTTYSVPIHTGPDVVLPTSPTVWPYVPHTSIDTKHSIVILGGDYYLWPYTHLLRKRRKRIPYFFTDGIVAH
Briefly: co-IP; FLAG-tagged L2 precipitated from lysates of transfected HEK293FT cells with anti-FLAG M2 agarose (IP buffer: 20 mM Tris-HCl pH 8.0, 10% glycerol, 5 mM MgCl2, 0.1% Tween 20, 0.1 M KCl, 0.5 mM DTT; 1 h, room temperature), eluted with 3xFLAG peptide; Western blot with anti-P880/894 (TRAPPC8) or anti-TTC15 (TRAPPC12). On the technique in general: In western blotting, separated proteins are transferred to a membrane and probed.

Regarding “transport protein particle complex subunit 8 (TRAPPC8) (from UniProt Q9Y2L5 1-1435)”, the binding result is reported as “no binding”.
